Data on 1 compound can be found in patent US4783461A, “3,6-disubstituted triazolo [3,4-A]phthalazine derivatives” (Gruppo Lepetit S.p.A., priority 1983, dated 1988).

The assay concerns the target rat brain benzodiazepine receptors (3H-diazepam receptor). As to the kind of experiment: benzodiazepine-receptor binding test in vitro (inhibition of specific 3H-diazepam binding to rat brain membranes). To be noted: constant used in the Ki formula, read-out: KD, affinity constant of 3H-diazepam for its receptor. From the text:
The pharmacological properties of the compounds of the present invention were first investigated by submitting some representative members of this class to the benzodiazepine-receptor binding-test in vitro.

Structures are written as SMILES.

As usually defined, the Kd is the concentration at which binding is half-saturated. Take `CN1C(=O)CN=C(c2ccccc2)c2cc(Cl)ccc21` [^3 H-diazepam, reference compound]: the Kd was 3.4 nM.
